# Assay results as given in patent US10080776B2, “Molecular marker for cancer stem cell” (Sapporo Medical University, priority 2008, dated 2018).
# Not every detail of the peptide structures is certain; ends, links or a residue may be inferred. No end group written: not given here.
# Test system: CTLs cocultured with peptide-pulsed T2A24
# Assay: Human IFNγ ELISPOT assay with SOX2 peptide-induced CTLs
# Type: cell-based
# Conditions: overnight
sequence,measurement,value
"RYLRDQQLLGI [HIV-derived peptide, reference compound]",release of IFNγ from T cells (ELISPOT),release of IFNγ from T cells was not detected
